# This is one part of the list. Shown are side measurements of this screen, not its main read-out; they come without a call. Compounds called inactive in the main read-out are mostly missing here. Potencies come from curve fits of mixed quality, noted in brackets.
# Test: Cell signaling CRE-BLA (Fsk stim)
# Details: CHO CRE-bla reporter (cAMP response element driving beta-lactamase), forskolin EC10, beta-lactamase ratio; measured here: 460 nm blue channel
# In short: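 qHTS titration format; CRE-bla CHO reporter; stimulus EC10 NKH 477, a water-soluble forskolin. Read: CCF4 460/530 nm ratio. Potency expressed as AC50 for activators or inhibitors.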
row,Compound,AC50
1,Fc1cccc(CSc2ncnc3c2ncn3[C@H]2CCCS2)c1,"3.98 µM [rising, single point]"
2,CCOc1ccc2nc(NC(=O)C(CC)Sc3nc(C)cc(=O)[nH]3)sc2c1 (stereo not drawn),"15.8 µM [rising, single point]"
3,Cn1c(=O)cc(OCCCC(=O)N2CCN(Cc3ccc4c(c3)OCO4)CC2)c2ccccc21,"12.6 µM [rising, single point]"
4,Cn1c(=O)c(-c2cccs2)nc2cnc(N3CCNCC3)nc21,"10 µM [rising, partial curve]"
5,CC1=C(C(=O)Nc2ccccc2)C(c2cccs2)C(C#N)=C(SCC#N)N1 (stereo not drawn),"20 µM [falling, partial curve]"
6,CCOc1cc2c3c(c1)C1(C(=O)N3C(C)(C)C=C2C)C(C#N)=C(N)Oc2cc(O)ccc21 (stereo not drawn),"25.1 µM [rising, single point]"
7,Cc1cc(=O)c2ccccc2[nH]1,"0.126 µM [falling, full curve, poor fit]"
8,Oc1cc2c(cc1O)[C@H](c1ccccc1)CNCC2,"25.1 µM [falling, partial curve]"
9,COCCNc1nc(-n2nc(C)cc2C)nc2sc3c(c12)CCCC3,"7.94 µM [rising, partial curve]"
10,COc1cc(-c2noc(CCC(N)=O)n2)cc(OC)c1OC,"3.16 µM [rising, partial curve]"
11,N#CCCCSc1nnc(CSc2nc3ccccc3s2)n1-c1ccccc1,"3.98 µM [falling, partial curve]"
12,COc1ccc2[nH]c(=O)c(CN(Cc3ccc(C)cc3)Cc3nnnn3CC3CCCO3)cc2c1 (stereo not drawn),"3.98 µM [falling, single point]"
13,COc1cccc(N(C(=O)c2cccs2)c2nc3ccccc3s2)c1,"0.398 µM [rising, full curve]"
14,CCOC(=O)C(NC(C)=O)(NS(=O)(=O)c1ccccc1)C(F)(F)F (stereo not drawn),"0.0501 µM [falling, partial curve, poor fit]"
15,CC(C)(C)c1cc(CN2CCCC(O)C2)c(O)c(C(C)(C)C)c1 (stereo not drawn),"5.01 µM [falling, single point]"
16,CCCc1cc(C(=O)N2CCN(c3ccccc3C)CC2)cs1,"25.1 µM [falling, single point]"
17,COC(=O)C(C)Sc1nc2c(c(=O)[nH]c(=O)n2C)n1CCCc1ccccc1 (stereo not drawn),"15.8 µM [rising, partial curve]"
18,COc1nc(-c2ccc(C)cc2)ccc1-c1noc(-c2ccco2)n1,"10 µM [rising, single point]"
19,CCOC(=O)C1=C(C)Nc2ccccc2N=C1NC(=O)c1cccc(S(=O)(=O)N(C)C)c1,"15.8 µM [rising, single point]"
20,Cc1cc(-n2[nH]c(C)c(C)c2=O)nc(-c2ccccc2O)n1,"7.94 µM [falling, partial curve]"
21,CCOC(=O)c1ccccc1NC(=O)c1ccc(Cl)c(S(=O)(=O)N2CCOCC2)c1,"5.01 µM [rising, partial curve]"
22,Cc1ccc(-c2nn3c(C)nnc3s2)cc1NC(=O)c1ccc(-c2ccc(Cl)cc2Cl)o1,"3.98 µM [rising, full curve, poor fit]"

# Of the compounds above, 2 contain a Cl atom:
row,Compound,AC50
21,CCOC(=O)c1ccccc1NC(=O)c1ccc(Cl)c(S(=O)(=O)N2CCOCC2)c1,"5.01 µM [rising, partial curve]"
22,Cc1ccc(-c2nn3c(C)nnc3s2)cc1NC(=O)c1ccc(-c2ccc(Cl)cc2Cl)o1,"3.98 µM [rising, full curve, poor fit]"

# Next part

row,Compound,AC50
1,COc1ccc(NCc2n[nH]nc2-c2ccccc2)cc1Cl,"25.1 µM [falling, single point]"
2,O=C(Nc1nccs1)c1ccc(Cl)c(S(=O)(=O)N2CCCCC2)c1,"5.01 µM [rising, single point]"
3,C=CC(=C)CC(NC)c1ccccc1 (stereo not drawn),"0.794 µM [rising, full curve, poor fit]"
4,COc1cccc(Cn2c(=O)cnc3cnc(Nc4ccccc4)nc32)c1,"15.8 µM [rising, partial curve]"
5,COc1ccc2c(c1)c1ncnc(N3CCN(Cc4ccc5c(c4)OCO5)CC3)c1n2C,"5.01 µM [rising, single point]"
6,CN(C)c1nc(N)nc(-c2cccnc2)n1,"12.6 µM [rising, single point]"
7,CC(C)OCCCNc1ncnc2c1[nH]c1ccccc12,"12.6 µM [falling, single point]"
8,Nc1nc(CSc2nc3ccccc3s2)nc(N2CCCCC2)n1,"3.98 µM [rising, partial curve]"
9,Cc1ccc(CNC(=O)CSc2nc(N3CCCCC3)nc(N3CCCCC3)n2)cc1,"0.0794 µM [falling, full curve, poor fit]"
10,COc1ccc(-n2nc3c(c2NC(=O)C2CC2)CS(=O)C3)cc1 (stereo not drawn),"3.16 µM [rising, single point]"
11,CN(CC(=O)NCCc1ccccc1)S(=O)(=O)c1cccs1,"0.251 µM [falling, full curve, poor fit]"
12,COc1ccc(CNc2nc(-c3ccc4c(c3)OCO4)nc3ccccc23)c(OC)c1,"12.6 µM [rising, partial curve]"
13,COc1ccc(CNC(=O)C2CC(c3ccc(F)cc3)=NO2)cc1 (stereo not drawn),"0.794 µM [falling, full curve, poor fit]"
14,CCNc1ncc2nc(-c3ccccc3)c(=O)n(Cc3cccc(OC)c3)c2n1,"3.16 µM [rising, full curve]"
15,CN1/C(=C/C(=O)c2nc(S(C)(=O)=O)ncc2Cl)C(C)(C)c2ccccc21,"3.16 µM [falling, full curve]"
16,Nc1ccc(-c2nnc(-c3ccc(-c4ccccc4)cc3)o2)cc1,"3.98 µM [rising, partial curve]"
17,Cc1cc(C(F)(F)F)c2c(=O)[nH]c(=O)n(Cc3ccccc3)c2n1,"25.1 µM [rising, single point]"
18,CCOC(=O)C1=C(C)NC(C)=C(C(=O)OCC)C1C(=O)OCC(=O)c1ccc2c(c1)OCCO2,"3.98 µM [falling, single point]"
19,COc1ccc(CN2CCCCC2C(=O)Nc2ccc(OC)c(OC)c2)cc1OC (stereo not drawn),"15.8 µM [rising, partial curve]"
20,C=CCn1c(SCc2cc(C(=O)OC)c(C)o2)nnc1-c1ccncc1,"5.01 µM [rising, partial curve]"
21,CCc1ccc(NC(=O)c2cc(-c3ccc(OC)cc3)on2)cc1,"0.126 µM [falling, single point]"

# — PubChem BioAssay AID662 (National Center for Advancing Translational Sciences (NCATS), 2007)
